Results are given in words; binding and its absence hold for the method and conditions named. Some results given as binding are weak or reduced against the parent protein; the word gives no strength. Sequences can lack the tags named with a protein.
Biological target: human cathepsin S (Calbiochem) (human) (UniProt P25774)
Assay: fluorometric enzyme inhibition assay with Cbz-Val-Val-Arg-AMC, progress curves

Amino acid sequences for entries named in this document (tags omitted). A change or cut given only in a name is not applied to a line headed by its entry.
UniProt P25774: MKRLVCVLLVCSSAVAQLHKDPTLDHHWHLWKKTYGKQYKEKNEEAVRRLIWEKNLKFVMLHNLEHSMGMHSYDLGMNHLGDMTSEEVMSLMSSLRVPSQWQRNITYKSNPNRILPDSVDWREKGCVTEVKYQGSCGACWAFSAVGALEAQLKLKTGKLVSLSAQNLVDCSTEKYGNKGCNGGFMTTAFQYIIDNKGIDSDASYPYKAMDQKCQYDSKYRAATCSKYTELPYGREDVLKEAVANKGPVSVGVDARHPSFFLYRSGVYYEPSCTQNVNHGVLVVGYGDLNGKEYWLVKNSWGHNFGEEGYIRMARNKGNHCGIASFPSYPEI

B1: recombinant human cathepsin S propeptide (residues 17-113) with N-terminal hexahistidine tag, expressed from pQE30 (peptide)
chain: MRGSHHHHHHGSQLHKDPTLDHHWHLWKKTYGKQYKEKNEEAVRRLIWEKNLKFVMLHNLEHSMGMHSYDLGMNHLGDMTSEEVMSLTSSLRVPSQWQRNITYKSNPNRVDLQPSLIS
binding: binds
